Laboratory results: publication PMC4726326, “The Arabidopsis glutamyl-tRNA reductase (GluTR) forms a ternary complex with FLU and GluTR-binding protein” (Scientific Reports, 2016)
Results are given in words; binding and its absence hold for the method and conditions named.

Amino acid sequences for entries named in this document (tags omitted). Residues count along the entry.
UniProt Q42522, residues 38-472: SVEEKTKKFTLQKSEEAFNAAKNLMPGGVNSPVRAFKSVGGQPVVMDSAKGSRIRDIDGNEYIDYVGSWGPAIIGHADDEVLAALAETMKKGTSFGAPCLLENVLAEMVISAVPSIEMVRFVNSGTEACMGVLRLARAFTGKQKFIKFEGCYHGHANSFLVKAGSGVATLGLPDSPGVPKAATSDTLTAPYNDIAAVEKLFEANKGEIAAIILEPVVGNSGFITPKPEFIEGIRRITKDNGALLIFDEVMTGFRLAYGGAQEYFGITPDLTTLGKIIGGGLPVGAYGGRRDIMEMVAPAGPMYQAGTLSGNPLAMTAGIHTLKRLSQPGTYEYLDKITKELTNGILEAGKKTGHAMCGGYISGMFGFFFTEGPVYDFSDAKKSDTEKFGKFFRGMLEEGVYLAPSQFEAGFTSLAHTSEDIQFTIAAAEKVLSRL

Key:
[1] = target: T1, GluTR-GBP complex (Arabidopsis thaliana) (UniProt P42804+Q9LU39); experiment: ITC; MicroCal iTC200, 25 °C; 20 mM Tris-HCl pH 7.5, 150 mM NaCl; 20 injections of 2 μl of 0.5 mM protein into 200 μl of 50 μM protein; one-site binding model; apparent Kd; both purified
T1 sequence 1: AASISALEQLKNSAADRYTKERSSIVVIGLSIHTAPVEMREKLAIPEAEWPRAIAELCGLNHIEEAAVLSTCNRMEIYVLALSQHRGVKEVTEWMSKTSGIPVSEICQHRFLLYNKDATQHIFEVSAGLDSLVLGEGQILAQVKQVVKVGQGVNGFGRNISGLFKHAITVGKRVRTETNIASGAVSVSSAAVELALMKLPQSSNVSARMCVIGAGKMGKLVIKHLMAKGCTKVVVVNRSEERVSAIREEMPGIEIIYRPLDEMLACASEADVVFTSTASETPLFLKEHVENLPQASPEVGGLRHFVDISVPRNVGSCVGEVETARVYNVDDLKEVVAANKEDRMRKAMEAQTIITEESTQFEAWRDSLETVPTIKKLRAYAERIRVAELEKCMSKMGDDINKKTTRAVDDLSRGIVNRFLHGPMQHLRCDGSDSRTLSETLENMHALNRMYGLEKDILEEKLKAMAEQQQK
T1 sequence 2: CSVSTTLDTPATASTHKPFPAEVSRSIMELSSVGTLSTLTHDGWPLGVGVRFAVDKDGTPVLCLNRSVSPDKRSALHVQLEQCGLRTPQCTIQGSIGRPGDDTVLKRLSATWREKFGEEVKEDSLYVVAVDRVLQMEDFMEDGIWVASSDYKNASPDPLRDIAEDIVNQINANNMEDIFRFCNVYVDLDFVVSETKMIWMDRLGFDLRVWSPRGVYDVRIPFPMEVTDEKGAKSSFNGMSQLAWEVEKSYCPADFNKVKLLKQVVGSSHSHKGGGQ

[2] = target: T2, Arabidopsis glutamyl-tRNA reductase (GluTR), residues 73-543 (Arabidopsis thaliana) (UniProt P42804); experiment: as above
T2 sequence: T1 sequence 1

[3] = target: T3, Arabidopsis GluTR-binding protein (GBP), residues 42-317 (Arabidopsis thaliana) (UniProt Q9LU39); experiment: SEC; purified GluTR, GBP and FLU^TPR mixed at molar ratio 2:3:3, 1 hour at 4 °C; HiLoad 16/60 Superdex 200 pg; 20 mM Tris-HCl pH 7.5, 200 mM NaCl, 4 mM dithiothreitol; both purified
T3 sequence: T1 sequence 2

Mature Arabidopsis glutamate-1-semialdehyde aminomutase (GSAM), starting at residue 38 (from UniProt Q42522 38-472) (enzyme)
binding [1]: no binding (tested: 0.5 mM injected into 50 μM) | binding [2]: no binding (tested: 0.5 mM injected into 50 μM)

B1: C-terminal tetratricopeptide-repeat domain of Arabidopsis FLUORESCENT (FLU), residues 195-316 (domain or fragment, Arabidopsis thaliana, UniProt Q940U6 195-316, looked up)
chain: IVEPKKQELISKLKTGKTFLRNQEPEKAYTEFKIALELAQSLKDPTEEKKAARGLGASLQRQGKYREAIQYHSMVLAISKRESEDSGITEAYGAIADCYTELGDLEKAGKFYDTYIARLETD
notes: FLUORESCENT (FLU), Arabidopsis thaliana, At3g14110, truncation of residues 195-316 (TPR domain); Expression vector pET-22b(+); also called FLU^TPR; the recombinant TPR domain of FLU
binding [3]: no binding
